# “And” between values parts separate entries of the source, which are not always exact repeats. Identical values can stand only once. The list shows a part of the results. Each value is one well over the wells without odorant, computed here; the data are noisy.
# How the values were obtained:
# Assay in all cases: odorant receptor activation (CRE luciferase / Renilla) (fold of no-odor wells); higher = more activation
# Details in all cases: 100 µM
# OR52H1 clone 1702 = system: OR52H1 clone 1702
# OR52I1 clone 1521 = system: OR52I1 clone 1521
# OR52I2 T132M clone 1324 = system: OR52I2 T132M clone 1324
# OR52K1 clone 1163 = system: OR52K1 clone 1163
# OR52K2 clone 1211 = system: OR52K2 clone 1211
# [1] = system: OR52L1 D73N/C125R/C146R/K168T/W282R clone 1116
# OR52L2 R169W clone 1117 = system: OR52L2 R169W clone 1117
# OR52M1 clone 1143 = system: OR52M1 clone 1143
# OR52N1 clone 1191 = system: OR52N1 clone 1191
# OR52N2 M228T clone 1569 = system: OR52N2 M228T clone 1569
# [2] = system: OR52N4 T106I/L167R/N218I clone 1127
# OR52N5 clone 1238 = system: OR52N5 clone 1238
# OR52P1 clone 1221 = system: OR52P1 clone 1221
# [3] = system: OR52R1 I129T/N201Y/S245A clone 1705
# OR52W1 clone 1234 = system: OR52W1 clone 1234
# OR56A1 clone 1114 = system: OR56A1 clone 1114
# OR56A3 M51T clone 1128 = system: OR56A3 M51T clone 1128
# OR56A4 clone 1724 = system: OR56A4 clone 1724
# OR56A5 clone 1708 = system: OR56A5 clone 1708
# OR56B1 C106R clone 1168 = system: OR56B1 C106R clone 1168
structure (smiles),measurement,setting,value
CCCCCCCOC(C)=O [heptyl acetate],odorant receptor activation,OR52H1 clone 1702,0.994
same,odorant receptor activation,OR52I1 clone 1521,0.957 and 1.72
same,odorant receptor activation,OR52I2 T132M clone 1324,0.871 and 1.25
same,odorant receptor activation,OR52K1 clone 1163,1.24
same,odorant receptor activation,OR52K2 clone 1211,0.732
same,odorant receptor activation,[1],0.456
same,odorant receptor activation,OR52L2 R169W clone 1117,2.37
same,odorant receptor activation,OR52M1 clone 1143,1.03
same,odorant receptor activation,OR52N1 clone 1191,1.06
same,odorant receptor activation,OR52N2 M228T clone 1569,0.886
same,odorant receptor activation,[2],1.25
same,odorant receptor activation,OR52N5 clone 1238,0.876
same,odorant receptor activation,OR52P1 clone 1221,0.907
same,odorant receptor activation,[3],0.766
same,odorant receptor activation,OR52W1 clone 1234,1.03
same,odorant receptor activation,OR56A1 clone 1114,0.799
same,odorant receptor activation,OR56A3 M51T clone 1128,1.27
same,odorant receptor activation,OR56A4 clone 1724,0.792
same,odorant receptor activation,OR56A5 clone 1708,0.572
same,odorant receptor activation,OR56B1 C106R clone 1168,1.06
O=C1CCCCCCCCCCCCCCO1 [pentadecalactone],odorant receptor activation,OR52H1 clone 1702,0.866
same,odorant receptor activation,OR52I1 clone 1521,1.06
same,odorant receptor activation,OR52I2 T132M clone 1324,0.903
same,odorant receptor activation,OR52K1 clone 1163,0.794
same,odorant receptor activation,OR52K2 clone 1211,0.835
same,odorant receptor activation,[1],0.859
same,odorant receptor activation,OR52L2 R169W clone 1117,0.773
same,odorant receptor activation,OR52M1 clone 1143,0.763
same,odorant receptor activation,OR52N1 clone 1191,0.643
same,odorant receptor activation,OR52N2 M228T clone 1569,0.745
same,odorant receptor activation,[2],1.01
same,odorant receptor activation,OR52N5 clone 1238,0.831
same,odorant receptor activation,OR52P1 clone 1221,0.705
same,odorant receptor activation,[3],1.24
same,odorant receptor activation,OR52W1 clone 1234,0.989
same,odorant receptor activation,OR56A1 clone 1114,1.31
same,odorant receptor activation,OR56A3 M51T clone 1128,1.01
same,odorant receptor activation,OR56A4 clone 1724,0.587
same,odorant receptor activation,OR56A5 clone 1708,1.05
same,odorant receptor activation,OR56B1 C106R clone 1168,0.842
c1ccc(Oc2ccccc2)cc1 [diphenyl ether],odorant receptor activation,OR52H1 clone 1702,0.674
same,odorant receptor activation,OR52I1 clone 1521,1.28
same,odorant receptor activation,OR52I2 T132M clone 1324,1.13
same,odorant receptor activation,OR52K1 clone 1163,0.993
same,odorant receptor activation,OR52K2 clone 1211,1.02
same,odorant receptor activation,[1],1.01
same,odorant receptor activation,OR52L2 R169W clone 1117,1.03
same,odorant receptor activation,OR52M1 clone 1143,1.13
same,odorant receptor activation,OR52N1 clone 1191,0.939
same,odorant receptor activation,OR52N2 M228T clone 1569,0.799
same,odorant receptor activation,[2],1.02
same,odorant receptor activation,OR52N5 clone 1238,0.987
same,odorant receptor activation,OR52P1 clone 1221,1.02
same,odorant receptor activation,[3],0.743
same,odorant receptor activation,OR52W1 clone 1234,1.07
same,odorant receptor activation,OR56A1 clone 1114,0.778
same,odorant receptor activation,OR56A3 M51T clone 1128,1.13
same,odorant receptor activation,OR56A4 clone 1724,0.606
same,odorant receptor activation,OR56A5 clone 1708,0.921
same,odorant receptor activation,OR56B1 C106R clone 1168,0.701
COC(=O)c1ccccc1 [methyl benzoate],odorant receptor activation,OR52I1 clone 1521,1.26 and 1.18
same,odorant receptor activation,OR52I2 T132M clone 1324,1.03
same,odorant receptor activation,OR52K1 clone 1163,0.695
same,odorant receptor activation,OR52K2 clone 1211,0.79
same,odorant receptor activation,OR52M1 clone 1143,0.98
same,odorant receptor activation,OR52N1 clone 1191,0.956
same,odorant receptor activation,OR52P1 clone 1221,0.726
same,odorant receptor activation,OR56A1 clone 1114,1.21
same,odorant receptor activation,OR56A3 M51T clone 1128,1.15
same,odorant receptor activation,OR56B1 C106R clone 1168,0.988
CC(C)(C)c1ccc(CCC=O)cc1 [bourgeonal],odorant receptor activation,OR52I1 clone 1521,0.881
same,odorant receptor activation,OR52I2 T132M clone 1324,0.786
same,odorant receptor activation,OR52K1 clone 1163,0.626
same,odorant receptor activation,OR52K2 clone 1211,0.691
same,odorant receptor activation,[1],0.834
same,odorant receptor activation,OR52L2 R169W clone 1117,0.789
same,odorant receptor activation,OR52M1 clone 1143,0.689
same,odorant receptor activation,OR52N1 clone 1191,0.554
same,odorant receptor activation,OR52P1 clone 1221,0.718
same,odorant receptor activation,OR56A1 clone 1114,0.698
same,odorant receptor activation,OR56A3 M51T clone 1128,0.693
same,odorant receptor activation,OR56B1 C106R clone 1168,0.881
C=CCc1ccc(OC(C)=O)c(OC)c1 [eugenol acetate],odorant receptor activation,OR52H1 clone 1702,2.03
same,odorant receptor activation,OR52I1 clone 1521,1.66
same,odorant receptor activation,OR52I2 T132M clone 1324,1.73
same,odorant receptor activation,OR52K1 clone 1163,1.54
same,odorant receptor activation,OR52K2 clone 1211,1.5
same,odorant receptor activation,[1],2.1
same,odorant receptor activation,OR52L2 R169W clone 1117,2.15
same,odorant receptor activation,OR52M1 clone 1143,2.28
same,odorant receptor activation,OR52N1 clone 1191,1.73
same,odorant receptor activation,OR52N2 M228T clone 1569,2.1
same,odorant receptor activation,[2],0.932
same,odorant receptor activation,OR52N5 clone 1238,1.89
same,odorant receptor activation,OR52P1 clone 1221,1.67
same,odorant receptor activation,[3],2.29
same,odorant receptor activation,OR52W1 clone 1234,1.24
same,odorant receptor activation,OR56A1 clone 1114,1.25
same,odorant receptor activation,OR56A3 M51T clone 1128,1.69
same,odorant receptor activation,OR56A4 clone 1724,2.35
same,odorant receptor activation,OR56A5 clone 1708,2.88
same,odorant receptor activation,OR56B1 C106R clone 1168,1.84
CCCCCC(C)=O [2-heptanone],odorant receptor activation,OR52I1 clone 1521,0.912 and 0.65
same,odorant receptor activation,OR52I2 T132M clone 1324,2.99
same,odorant receptor activation,OR52K1 clone 1163,0.969
same,odorant receptor activation,OR52K2 clone 1211,0.996
same,odorant receptor activation,OR52M1 clone 1143,1.21
same,odorant receptor activation,OR52N1 clone 1191,0.897
same,odorant receptor activation,OR52P1 clone 1221,1.09
same,odorant receptor activation,OR56A1 clone 1114,0.682
same,odorant receptor activation,OR56A3 M51T clone 1128,1.18
same,odorant receptor activation,OR56B1 C106R clone 1168,1.36
CC12C=CCC1C1CCC3=CC(=O)CCC3(C)C1CC2 (centres undefined) [androstadienone],odorant receptor activation,OR52I1 clone 1521,1.09 and 1.27
same,odorant receptor activation,OR52I2 T132M clone 1324,0.793 and 0.861
same,odorant receptor activation,OR52K1 clone 1163,0.972
same,odorant receptor activation,OR52K2 clone 1211,0.858
same,odorant receptor activation,[1],0.825
same,odorant receptor activation,OR52L2 R169W clone 1117,2.08
same,odorant receptor activation,OR52M1 clone 1143,0.837
same,odorant receptor activation,OR52N1 clone 1191,0.883
same,odorant receptor activation,OR52P1 clone 1221,1.17
same,odorant receptor activation,OR56A1 clone 1114,1.12
same,odorant receptor activation,OR56A3 M51T clone 1128,0.897
same,odorant receptor activation,OR56B1 C106R clone 1168,1.22

# From the odorant receptor screen of Mainland et al. (2015)
